Results are given in words; binding and its absence hold for the method and conditions named. Binding seen in cells or lysates may run through a third protein. Here binding means that the protein was enriched with, or labelled near, the bait; the list need not be complete. Tags and fused reporters may be left off the sequences shown.
T1: FLAG-tagged recombinant wild-type MANF (mesencephalic astrocyte-derived neurotrophic factor) (UniProt P55145)
T1 sequence: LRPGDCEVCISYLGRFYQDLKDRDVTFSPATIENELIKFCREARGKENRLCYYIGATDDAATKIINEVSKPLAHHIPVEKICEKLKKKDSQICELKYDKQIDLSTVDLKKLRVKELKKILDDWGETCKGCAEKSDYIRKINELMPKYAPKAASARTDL

The chains behind the UniProt entries cited, without tags or fusion partners. Residues count along the entry.
UniProt P14618: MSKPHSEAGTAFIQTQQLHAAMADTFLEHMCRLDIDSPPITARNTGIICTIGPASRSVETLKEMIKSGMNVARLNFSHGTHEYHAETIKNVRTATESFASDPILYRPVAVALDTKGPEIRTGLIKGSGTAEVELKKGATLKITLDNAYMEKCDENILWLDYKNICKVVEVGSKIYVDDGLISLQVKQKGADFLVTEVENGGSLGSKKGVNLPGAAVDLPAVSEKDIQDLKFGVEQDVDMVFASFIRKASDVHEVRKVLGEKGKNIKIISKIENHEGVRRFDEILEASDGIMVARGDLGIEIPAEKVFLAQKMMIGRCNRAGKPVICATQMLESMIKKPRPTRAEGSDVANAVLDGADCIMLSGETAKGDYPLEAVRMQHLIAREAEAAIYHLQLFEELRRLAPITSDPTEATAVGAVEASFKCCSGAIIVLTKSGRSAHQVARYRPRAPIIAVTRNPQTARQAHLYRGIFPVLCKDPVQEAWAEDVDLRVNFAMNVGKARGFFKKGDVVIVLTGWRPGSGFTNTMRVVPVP
UniProt P11021, residues 19-654: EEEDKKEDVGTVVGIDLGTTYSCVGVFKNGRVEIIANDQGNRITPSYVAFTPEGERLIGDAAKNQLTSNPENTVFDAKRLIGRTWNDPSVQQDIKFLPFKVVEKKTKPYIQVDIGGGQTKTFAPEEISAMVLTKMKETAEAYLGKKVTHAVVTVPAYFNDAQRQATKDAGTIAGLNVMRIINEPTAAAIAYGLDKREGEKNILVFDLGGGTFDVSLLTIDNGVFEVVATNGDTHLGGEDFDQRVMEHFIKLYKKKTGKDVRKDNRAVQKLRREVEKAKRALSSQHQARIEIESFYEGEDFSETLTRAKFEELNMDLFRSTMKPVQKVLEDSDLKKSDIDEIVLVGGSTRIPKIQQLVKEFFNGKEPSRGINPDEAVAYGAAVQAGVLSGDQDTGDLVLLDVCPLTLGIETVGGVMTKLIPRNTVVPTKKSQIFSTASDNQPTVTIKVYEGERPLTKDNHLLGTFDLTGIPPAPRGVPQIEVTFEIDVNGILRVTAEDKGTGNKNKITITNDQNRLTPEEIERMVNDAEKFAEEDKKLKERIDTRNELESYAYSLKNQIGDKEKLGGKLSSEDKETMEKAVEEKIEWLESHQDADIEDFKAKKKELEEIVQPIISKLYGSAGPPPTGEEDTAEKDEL

B1: PDIA6 (protein, UniProt Q15084-1 20-440)
chain: LYSSSDDVIELTPSNFNREVIQSDSLWLVEFYAPWCGHCQRLTPEWKKAATALKDVVKVGAVDADKHHSLGGQYGVQGFPTIKIFGSNKNRPEDYQGGRTGEAIVDAALSALRQLVKDRLGGRSGGYSSGKQGRSDSSSKKDVIELTDDSFDKNVLDSEDVWMVEFYAPWCGHCKNLEPEWAAAASEVKEQTKGKVKLAAVDATVNQVLASRYGIRGFPTIKIFQKGESPVDYDGGRTRSDIVSRALDLFSDNAPPPELLEIINEDIAKRTCEEHQLCVVAVLPHILDTGAAGRNSYLEVLLKLADKYKKKMWGWLWTEAGAQSELETALGIGGFGYPAMAAINARKMKFALLKGSFSEQGINEFLRELSFGRGSTAPVGGGAFPTIVEREPWDGRDGELPVEDDIDLSDVELDDLGKDEL
B2: PRDX4 (protein, UniProt Q13162 38-271)
chain: WETEERPRTREEECHFYAGGQVYPGEASRVSVADHSLHLSKAKISKPAPYWEGTAVIDGEFKELKLTDYRGKYLVFFFYPLDFTFVCPTEIIAFGDRLEEFRSINTEVVACSVDSQFTHLAWINTPRRQGGLGPIRIPLLSDLTHQISKDYGVYLEDSGHTLRGLFIIDDKGILRQITLNDLPVGRSVDETLRLVQAFQYTDKHGEVCPAGWKPGSETIIPDPAGKLKYFDKLN

target: T1, FLAG-tagged recombinant wild-type MANF (mesencephalic astrocyte-derived neurotrophic factor); assay: affinity purification with mass spectrometry; FLAG-tagged MANF overexpressed in HEK-293 cells; cells treated with 1 mM DSP cross-linker before lysis; lysate in 1x RIPA buffer (500 ug) incubated with antibody agarose beads overnight, washed three times in RIPA; eluate analysed by LC-MS/MS, spectral counting against 293 control, three biological replicates

binding | Molecule
binds | PKM (from UniProt P14618 1-531)
binds | CCT5 (from UniProt P48643-1 1-541)
binds | TUBA1B (from UniProt P68363-1 1-451)
binds | GRP78 (HSPA5) (from UniProt P11021 19-654)
binds | B1
binds | B2

Reference: publication PMC6363614
